Experimental data as given in publication PMC11143218, “Evolved histone tail regulates 53BP1 recruitment at damaged chromatin” (Nature Communications, 2024).
These are yes or no findings as the source states them, for the method shown. In cells and extracts the contact can be indirect. Some binding calls cover weakened binding; strength is not graded here. For part of these data: Sequences can lack the tags named with a protein.

By UniProt entry, the sequences of proteins in these tests, tags left out. Residues count along the entry.
UniProt Q12888, residues 1220-1639: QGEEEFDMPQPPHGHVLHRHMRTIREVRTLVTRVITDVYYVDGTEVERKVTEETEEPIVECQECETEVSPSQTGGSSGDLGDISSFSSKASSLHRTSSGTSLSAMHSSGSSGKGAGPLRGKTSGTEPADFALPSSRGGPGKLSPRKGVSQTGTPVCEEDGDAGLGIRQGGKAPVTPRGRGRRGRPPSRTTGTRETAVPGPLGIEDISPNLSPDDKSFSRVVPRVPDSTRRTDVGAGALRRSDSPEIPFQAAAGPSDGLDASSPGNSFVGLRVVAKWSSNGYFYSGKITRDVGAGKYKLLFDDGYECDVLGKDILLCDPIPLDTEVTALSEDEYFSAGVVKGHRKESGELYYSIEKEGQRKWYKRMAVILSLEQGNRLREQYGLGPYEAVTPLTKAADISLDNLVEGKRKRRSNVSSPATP

T1: biotinylated phosphorylated S139 H2AX C-terminal tail peptide (human)
T1 sequence (peptide, biotin on the N-terminus; phosphoserine (pS) at S139): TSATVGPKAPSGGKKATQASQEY

T2: biotinylated phosphorylated S139 H2AX C-terminal tail with Y142L mutation (human)
T2 sequence (peptide, biotin on the N-terminus; phosphoserine (pS) at S139): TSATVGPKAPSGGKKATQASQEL


What was measured:
[1] = target: T1, biotinylated phosphorylated S139 H2AX C-terminal tail peptide (human); assay: pull-down; HEK293T lysates (myc-tagged expression vectors, NETN buffer) incubated with 2.5 μg biotinylated peptide and 10 μL streptavidin beads, 1 h at 4 °C; washed three times with NETN; western blot; only the target purified
[2] = target: T2, biotinylated phosphorylated S139 H2AX C-terminal tail with Y142L mutation (human); assay: as above

Row | binding [1] | binding [2] | Molecule
1 | binds | binds | Myc-53BP1 IRIF formation fragment a.a. 1220-1639 (from UniProt Q12888 1220-1639) (domain or fragment)
2 | no binding |  | Myc-Crb2 a.a. 108–508 (domain or fragment, UniProt P87074 108-508) SPYSPKQTHTVLKRLYDRQSVISDHEKLLTPQNVSNSSQILSPFTSLLPSTLSTLKDTPLSVSQNEKNLETVGEVLVPETVAQHRTKFYDYTLDEMENETESGQVETTPTRLATSLGSPVLYGRVESTPPAFLPETSEKQYKRKFSFTEPSSEKVDNTETKFSKKTKNINDENFPNPFNVISSYETSASPSTVIDQSSQVSSIFVNKRLRKSVNNQAISRSDSLSLDTPKIDSLFTRASIKPLKPSQSPNSRRSFKNRVLAFFKGYPSFYYPATLVAPVHSAVTSSIMYKVQFDDATMSTVNSNQIKRFFLKKGDVVQSTRLGKIKHTVVKTFRSTNEQLSLIAVDALNNDMVILAHGEIEVTVPISTIYVAPVNIRRFQGRDLSFSTLKDMKFEETSFLP
